Results are given in words; binding and its absence hold for the method and conditions named. In cells and extracts the contact can be indirect. Some binding calls cover weakened binding; strength is not graded here.
Key:
[1] = target: Jade2 (UniProt Q6ZQF7); assay: IP of TOX from EL4 nuclear lysate, LC-MS/MS, MiST scoring
[2] = target: Ing4 (UniProt Q8C0D7); assay: as above

Protein sequences, listed by entry. Tags and fused reporters are not part of them.
UniProt Q66JW3: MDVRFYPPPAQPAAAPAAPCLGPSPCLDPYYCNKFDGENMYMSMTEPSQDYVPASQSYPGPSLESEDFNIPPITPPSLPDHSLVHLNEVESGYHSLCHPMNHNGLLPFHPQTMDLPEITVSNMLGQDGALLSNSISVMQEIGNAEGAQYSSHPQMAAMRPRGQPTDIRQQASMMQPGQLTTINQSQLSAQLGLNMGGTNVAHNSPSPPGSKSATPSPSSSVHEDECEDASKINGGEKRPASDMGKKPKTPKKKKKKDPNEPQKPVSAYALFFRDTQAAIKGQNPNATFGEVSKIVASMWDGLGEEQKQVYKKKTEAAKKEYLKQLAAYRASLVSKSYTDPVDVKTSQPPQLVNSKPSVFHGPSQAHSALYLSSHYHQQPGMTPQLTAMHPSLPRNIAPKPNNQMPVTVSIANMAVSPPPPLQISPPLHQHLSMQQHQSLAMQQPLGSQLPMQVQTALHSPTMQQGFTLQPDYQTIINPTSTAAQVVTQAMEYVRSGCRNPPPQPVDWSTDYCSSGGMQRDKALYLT

TOX (from UniProt Q66JW3 1-526) was tested, and the binding [1] was “binds” and the binding [2] was “binds”.

— patent US20210071139A1
